Paper PMC9681887
These are yes or no findings as the source states them, for the method shown. In cells and extracts the contact can be indirect. These calls come from enrichment with a bait or labelling near it, and not all partners need be listed.

Amino acid sequences for entries named in this document (tags omitted). A change or cut given only in a name is not applied to a line headed by its entry.
UniProt P06804: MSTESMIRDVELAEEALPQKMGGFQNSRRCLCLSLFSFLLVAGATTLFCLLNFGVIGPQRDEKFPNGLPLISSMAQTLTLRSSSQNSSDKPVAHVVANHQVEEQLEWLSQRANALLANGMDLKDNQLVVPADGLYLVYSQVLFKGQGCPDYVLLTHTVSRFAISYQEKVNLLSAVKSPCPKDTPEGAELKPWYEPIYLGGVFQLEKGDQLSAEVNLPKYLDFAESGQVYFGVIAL

Target: Flag-TNFα (UniProt P06804)
Test: affinity purification with mass spectrometry; TNF-RSC from Senp1-WT and Senp1-KD MEFs treated with Flag-TNFα (100 ng/ml, 5 min), isolated on anti-Flag beads, trypsin-digested on beads, duplicates; only the target purified

B1: A20 (protein, UniProt Q60769 1-775)
chain: MAEQLLPQALYLSNMRKAVKIRERTPEDIFKPTNGIIYHFKTMHRYTLEMFRTCQFCPQFREIIHKALIDRSVQASLESQKKLNWCREVRKLVALKTNGDGNCLMHAACQYMWGVQDTDLVLRKALCSTLKETDTRNFKFRWQLESLKSQEFVETGLCYDTRNWNDEWDNLVKMASADTPAARSGLQYNSLEEIHIFVLSNILRRPIIVISDKMLRSLESGSNFAPLKVGGIYLPLHWPAQECYRYPIVLGYDSQHFVPLVTLKDSGPELRAVPLVNRDRGRFEDLKVHFLTDPENEMKEKLLKEYLIVMEIPVQGWDHGTTHLINAAKLDEANLPKEINLVDDYFELVQHEYKKWQENSDQARRAAHAQNPLEPSTPQLSLMDIKCETPNCPFFMSVNTQPLCHECSERRQKNQSKLPKLNSKLGPEGLPGVGLGSSNWSPEETAGGPHSAPPTAPSLFLFSETTAMKCRSPGCPFTLNVQHNGFCERCHARQINASHTADPGKCQACLQDVTRTFNGICSTCFKRTTAEPSSSLTSSIPASCHQRSKSDPSQLIQSLTPHSCHRTGNVSPSGCLSQAARTPGDRAGTSKCRKAGCMYFGTPENKGFCTLCFIEYRENKQSVTASEKAGSPAPRFQNNVPCLGRECGTLGSTMFEGYCQKCFIEAQNQRFHEARRTEEQLRSSQHRDMPRTTQVASRLKCARASCKNILACRSEELCMECQHLSQRVGSVAHRGEPTPEEPPKQRCRAPACDHFGNAKCNGYCNECYQFKQMYG
- binding: binds
